# PubChem BioAssay AID1224826 – NIAID, 2016
# Aim: 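Knock-downs that raise or lower Tnf reporter signal after endotoxin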 (primary screen)
# Cells: RAW264.7 G9 macrophages from mouse bearing reporters for p65 (GFP) and the Tnf promoter (mCherry)
# Reagent: siRNA pool against mouse genes, 100 nM
# Timing: 16 h of LPS stimulation, after 2 days of siRNA transfection
# Challenge: bacterial lipopolysaccharide (Salmonella minnesota R595), 10 ng/ml
# Read-out: 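Imaged Tnf reporter mCherry in nuclei, minus background, normalised per plate to the median and expressed as robust z-scores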
# Scale: Tnf reporter robust z-score: higher = stronger Tnf promoter reporter signal after LPS; Tnf reporter intensity: higher = stronger Tnf promoter reporter signal
# Call rule: 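a well counts as active at a score of -1.3 or below (Tlr4 knock-down control median) or above 3 (raised signal); controls and wells holding fewer than 50 cells are excluded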
# Calls: active = Tnf reporter clearly lowered or raised; inactive = no clear change in Tnf reporter
# The deposit covers about 17,000 reagents; shown is a part drawn at random. About 1,110 of all reagents (6.6%) count as active. 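Active means lowered or raised reporter signal; replicate intensities are raw and not normalised per plate.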 Unmarked entries are inactive. Reagent sequences are not shown.
gene symbol,Tnf reporter robust z-score,fewer than 50 cells in well,"Tnf reporter intensity, replicate 1","Tnf reporter intensity, replicate 2"
Pdzd7 (GeneID 100503041),1.38,enough cells in well,291,249
Hmox2 (GeneID 15369),-0.16,enough cells in well,216,187
Pld5 (GeneID 319455),0.05,enough cells in well,173,168
Mfap5 (GeneID 50530),-0.13,enough cells in well,199,126
Cimip2b (GeneID 329831),3.34 (active),enough cells in well,375,141
Snrnp70 (GeneID 20637),0.21,enough cells in well,112,102
Dpp9 (GeneID 224897),-0.3,enough cells in well,170,79.6
Smim3 (GeneID 106878),,fewer than 50 cells per well; well left out of calls,125,46.4
Riox2 (GeneID 67014),1.27,enough cells in well,251,226
Exosc4 (GeneID 109075),-0.37,enough cells in well,144,168
Gli1 (GeneID 14632),-0.69,enough cells in well,182,93.9
Aco2 (GeneID 11429),-0.26,enough cells in well,190,168
Muc19 (GeneID 239611),-0.75,enough cells in well,125,104
Triqk (GeneID 208820),-0.12,enough cells in well,126,128
Vav2 (GeneID 22325),-0.27,enough cells in well,211,206
Esyt2 (GeneID 52635),-0.06,enough cells in well,103,173
Slc25a15 (GeneID 18408),0.01,enough cells in well,219,143
Mmp1a (GeneID 83995),0.9,enough cells in well,370,246
Mettl21a (GeneID 67099),,fewer than 50 cells per well; well left out of calls,140,35.8
Rpl27a (GeneID 26451),0.53,enough cells in well,189,146
Trat1 (GeneID 77647),0.21,enough cells in well,256,129
Gfpt2 (GeneID 14584),-1.31 (active),enough cells in well,136,88.3
Slc26a9 (GeneID 320718),1.12,enough cells in well,167,109
Pomt2 (GeneID 217734),-0.64,enough cells in well,120,83.7
Mapk6 (GeneID 50772),-0.91,enough cells in well,119,127
Elp1 (GeneID 230233),,fewer than 50 cells per well; well left out of calls,221,183
Serpinh1 (GeneID 12406),0.47,enough cells in well,276,290
Oosp1 (GeneID 170834),2.22,enough cells in well,257,152
Rbmx (GeneID 19655),4.98 (active),enough cells in well,374,311
Psmd4 (GeneID 19185),3.69 (active),enough cells in well,558,426
Tspear (GeneID 252974),0.55,enough cells in well,129,200
Naga (GeneID 17939),0.14,enough cells in well,233,251
Serpinb7 (GeneID 116872),0.14,enough cells in well,106,96.4
Fam107a (GeneID 268709),-0.96,enough cells in well,95.3,108
Kcnv2 (GeneID 240595),0.76,enough cells in well,268,212
Snrpn (GeneID 20646),-0.56,enough cells in well,206,193
Chrd (GeneID 12667),-0.21,enough cells in well,135,188
Slfn4 (GeneID 20558),1.76,enough cells in well,175,144
Cttnbp2nl (GeneID 80281),0.1,enough cells in well,205,224
Gfod2 (GeneID 70575),,fewer than 50 cells per well; well left out of calls,112,104

Active calls, among the entries above:
gene symbol,Tnf reporter robust z-score,fewer than 50 cells in well,"Tnf reporter intensity, replicate 1","Tnf reporter intensity, replicate 2"
Cimip2b (GeneID 329831),3.34 (active),enough cells in well,375,141
Gfpt2 (GeneID 14584),-1.31 (active),enough cells in well,136,88.3
Rbmx (GeneID 19655),4.98 (active),enough cells in well,374,311
Psmd4 (GeneID 19185),3.69 (active),enough cells in well,558,426
